Test results: article doi:10.1101/2024.02.05.578926
These are yes or no findings as the source states them, for the method shown. In cells and extracts the contact can be indirect. A yes stands for co-enrichment or nearness to the bait. Other partners may have been found. Blank lines part the entries; values can stand above or below the molecule they belong to.

Amino acid sequences for entries named in this document (tags omitted).
UniProt Q6P1X5: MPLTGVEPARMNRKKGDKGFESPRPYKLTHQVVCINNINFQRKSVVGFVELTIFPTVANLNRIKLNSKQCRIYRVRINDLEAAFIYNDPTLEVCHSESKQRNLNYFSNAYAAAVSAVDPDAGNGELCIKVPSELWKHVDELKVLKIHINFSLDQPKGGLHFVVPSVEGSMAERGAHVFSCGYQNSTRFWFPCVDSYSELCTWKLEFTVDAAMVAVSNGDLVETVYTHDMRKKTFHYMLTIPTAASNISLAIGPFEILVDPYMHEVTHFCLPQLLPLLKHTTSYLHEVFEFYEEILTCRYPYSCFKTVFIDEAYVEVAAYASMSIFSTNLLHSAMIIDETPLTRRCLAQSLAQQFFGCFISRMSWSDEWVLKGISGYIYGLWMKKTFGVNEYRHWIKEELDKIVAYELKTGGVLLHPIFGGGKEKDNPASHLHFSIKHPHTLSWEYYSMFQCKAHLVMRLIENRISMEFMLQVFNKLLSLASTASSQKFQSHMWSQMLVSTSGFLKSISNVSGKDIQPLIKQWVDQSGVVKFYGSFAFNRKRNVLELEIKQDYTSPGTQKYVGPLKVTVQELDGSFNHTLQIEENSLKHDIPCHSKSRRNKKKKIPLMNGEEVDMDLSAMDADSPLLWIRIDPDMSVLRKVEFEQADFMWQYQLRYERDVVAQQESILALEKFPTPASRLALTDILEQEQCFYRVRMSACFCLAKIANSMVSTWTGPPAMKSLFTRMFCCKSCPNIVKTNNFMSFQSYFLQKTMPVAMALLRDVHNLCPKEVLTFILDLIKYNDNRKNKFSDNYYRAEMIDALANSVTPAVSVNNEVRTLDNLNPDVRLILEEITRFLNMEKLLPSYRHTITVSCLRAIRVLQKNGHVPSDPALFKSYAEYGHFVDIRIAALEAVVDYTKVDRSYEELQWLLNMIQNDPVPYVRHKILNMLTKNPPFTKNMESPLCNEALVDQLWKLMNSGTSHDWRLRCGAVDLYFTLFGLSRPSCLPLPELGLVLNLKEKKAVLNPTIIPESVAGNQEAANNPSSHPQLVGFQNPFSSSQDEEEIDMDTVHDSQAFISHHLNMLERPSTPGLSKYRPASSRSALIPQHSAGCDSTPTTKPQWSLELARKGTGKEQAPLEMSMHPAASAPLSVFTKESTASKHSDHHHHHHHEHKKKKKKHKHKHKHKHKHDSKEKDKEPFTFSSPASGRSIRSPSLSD
UniProt O15042: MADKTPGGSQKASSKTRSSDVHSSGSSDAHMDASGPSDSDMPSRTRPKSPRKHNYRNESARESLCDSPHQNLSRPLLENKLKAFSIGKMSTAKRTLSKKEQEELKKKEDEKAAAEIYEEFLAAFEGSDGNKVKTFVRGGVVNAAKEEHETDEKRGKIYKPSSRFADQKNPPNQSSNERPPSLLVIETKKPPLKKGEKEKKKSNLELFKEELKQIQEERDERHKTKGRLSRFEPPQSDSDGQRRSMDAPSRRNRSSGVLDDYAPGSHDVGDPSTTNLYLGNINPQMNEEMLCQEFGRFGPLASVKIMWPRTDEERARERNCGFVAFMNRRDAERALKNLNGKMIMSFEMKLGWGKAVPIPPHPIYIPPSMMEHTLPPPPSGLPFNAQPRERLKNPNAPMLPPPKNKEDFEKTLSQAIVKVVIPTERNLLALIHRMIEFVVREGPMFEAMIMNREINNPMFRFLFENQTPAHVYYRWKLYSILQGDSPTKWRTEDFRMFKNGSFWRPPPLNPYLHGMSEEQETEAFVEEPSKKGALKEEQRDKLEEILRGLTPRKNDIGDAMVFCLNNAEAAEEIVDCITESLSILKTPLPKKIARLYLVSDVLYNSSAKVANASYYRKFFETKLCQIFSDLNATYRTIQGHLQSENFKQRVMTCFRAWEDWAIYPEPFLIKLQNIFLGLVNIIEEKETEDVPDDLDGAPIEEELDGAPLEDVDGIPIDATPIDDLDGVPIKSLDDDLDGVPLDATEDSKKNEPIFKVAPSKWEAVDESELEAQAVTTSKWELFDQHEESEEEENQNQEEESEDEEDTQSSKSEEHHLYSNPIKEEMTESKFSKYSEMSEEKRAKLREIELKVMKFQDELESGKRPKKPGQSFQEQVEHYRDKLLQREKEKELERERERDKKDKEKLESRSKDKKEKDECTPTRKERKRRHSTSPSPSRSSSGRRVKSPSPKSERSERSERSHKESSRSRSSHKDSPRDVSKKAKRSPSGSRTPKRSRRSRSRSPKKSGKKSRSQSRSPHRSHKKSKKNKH
UniProt P18583: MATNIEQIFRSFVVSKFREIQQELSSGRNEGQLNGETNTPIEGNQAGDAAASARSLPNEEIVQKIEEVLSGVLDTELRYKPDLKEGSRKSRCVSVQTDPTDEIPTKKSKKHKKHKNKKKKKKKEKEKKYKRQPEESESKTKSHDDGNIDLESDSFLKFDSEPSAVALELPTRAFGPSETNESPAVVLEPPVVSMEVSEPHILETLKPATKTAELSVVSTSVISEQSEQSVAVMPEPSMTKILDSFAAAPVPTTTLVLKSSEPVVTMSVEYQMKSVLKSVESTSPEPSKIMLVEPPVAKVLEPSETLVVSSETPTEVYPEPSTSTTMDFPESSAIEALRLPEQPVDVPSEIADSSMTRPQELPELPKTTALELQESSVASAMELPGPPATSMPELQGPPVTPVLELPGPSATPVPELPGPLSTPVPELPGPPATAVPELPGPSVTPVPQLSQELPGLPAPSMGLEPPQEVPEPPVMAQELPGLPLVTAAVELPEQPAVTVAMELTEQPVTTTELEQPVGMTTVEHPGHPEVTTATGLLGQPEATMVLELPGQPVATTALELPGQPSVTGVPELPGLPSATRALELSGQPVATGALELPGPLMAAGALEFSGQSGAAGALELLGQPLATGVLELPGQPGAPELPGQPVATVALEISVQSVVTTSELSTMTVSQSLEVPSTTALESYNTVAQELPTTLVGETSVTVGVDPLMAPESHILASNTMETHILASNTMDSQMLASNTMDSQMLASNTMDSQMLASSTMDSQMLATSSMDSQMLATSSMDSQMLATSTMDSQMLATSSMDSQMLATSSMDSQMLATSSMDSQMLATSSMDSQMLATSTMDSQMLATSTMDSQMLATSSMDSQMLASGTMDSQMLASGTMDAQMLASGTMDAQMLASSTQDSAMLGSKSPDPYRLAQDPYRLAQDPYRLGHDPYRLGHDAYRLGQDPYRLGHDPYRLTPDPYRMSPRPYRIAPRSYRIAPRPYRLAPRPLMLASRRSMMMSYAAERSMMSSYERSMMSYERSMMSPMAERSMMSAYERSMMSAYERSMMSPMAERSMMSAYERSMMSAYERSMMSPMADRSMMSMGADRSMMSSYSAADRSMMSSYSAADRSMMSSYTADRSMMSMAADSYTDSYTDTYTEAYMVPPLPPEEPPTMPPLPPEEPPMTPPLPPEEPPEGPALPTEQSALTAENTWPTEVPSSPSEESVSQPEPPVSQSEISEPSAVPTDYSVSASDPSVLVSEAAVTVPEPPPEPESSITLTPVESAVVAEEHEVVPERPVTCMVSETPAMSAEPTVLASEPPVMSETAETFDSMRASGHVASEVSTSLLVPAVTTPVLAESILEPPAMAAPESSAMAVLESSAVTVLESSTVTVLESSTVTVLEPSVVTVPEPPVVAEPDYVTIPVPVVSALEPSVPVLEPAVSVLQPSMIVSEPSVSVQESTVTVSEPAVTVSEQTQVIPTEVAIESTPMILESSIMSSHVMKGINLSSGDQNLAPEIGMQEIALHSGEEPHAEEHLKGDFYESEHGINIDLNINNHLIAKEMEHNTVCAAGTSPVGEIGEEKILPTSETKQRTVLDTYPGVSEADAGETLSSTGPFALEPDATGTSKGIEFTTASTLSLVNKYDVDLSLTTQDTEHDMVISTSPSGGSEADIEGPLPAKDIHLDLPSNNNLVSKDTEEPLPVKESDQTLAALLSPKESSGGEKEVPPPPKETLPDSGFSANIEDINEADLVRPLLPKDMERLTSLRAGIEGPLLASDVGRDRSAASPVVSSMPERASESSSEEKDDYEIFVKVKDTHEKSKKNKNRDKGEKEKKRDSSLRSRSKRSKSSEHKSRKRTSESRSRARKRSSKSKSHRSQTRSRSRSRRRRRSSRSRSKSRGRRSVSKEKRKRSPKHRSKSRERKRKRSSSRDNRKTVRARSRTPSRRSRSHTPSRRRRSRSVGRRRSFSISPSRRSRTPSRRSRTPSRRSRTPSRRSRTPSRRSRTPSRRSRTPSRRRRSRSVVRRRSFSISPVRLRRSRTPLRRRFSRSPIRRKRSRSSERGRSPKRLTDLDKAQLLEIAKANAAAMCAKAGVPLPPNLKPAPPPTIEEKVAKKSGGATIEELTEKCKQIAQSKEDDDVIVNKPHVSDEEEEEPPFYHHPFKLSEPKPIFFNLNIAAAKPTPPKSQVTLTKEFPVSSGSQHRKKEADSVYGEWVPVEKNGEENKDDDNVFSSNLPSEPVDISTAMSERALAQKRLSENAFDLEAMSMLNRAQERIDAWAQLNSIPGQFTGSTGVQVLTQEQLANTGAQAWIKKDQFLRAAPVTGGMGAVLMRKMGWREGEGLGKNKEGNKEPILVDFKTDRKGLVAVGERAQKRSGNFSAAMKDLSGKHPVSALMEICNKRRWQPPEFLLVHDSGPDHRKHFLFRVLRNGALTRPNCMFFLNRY

Assays:
[1] = target: miniTurbo–TAF2 (human) (UniProt Q6P1X5); assay: proximity labelling
[2] = target: SRRM2-tr0-GFP (human (endogenous in HAP1)) (UniProt Q9UQ35); assay: affinity purification with mass spectrometry
[3] = target: GFP-TAF2ΔIDR (human); assay: affinity purification with mass spectrometry
[4] = target: GFP–TAF2 (human) (UniProt Q6P1X5); assay: affinity purification with mass spectrometry

binding [1]: binds
Molecule: U2SURP (from UniProt O15042 1-1029)

binding [2]: binds
Molecule: SON (from UniProt P18583 1-2426)

binding [2]: binds
Molecule: TAF2 (endogenous, HAP1) (from UniProt Q6P1X5 1-1199)

binding [1]: binds
B1: SNRNP40 (protein, UniProt Q96DI7 1-357)
chain: MIEQQKRKGPELPLVPVKRQRHELLLGAGSGPGAGQQQATPGALLQAGPPRCSSLQAPIMLLSGHEGEVYCCKFHPNGSTLASAGFDRLILLWNVYGDCDNYATLKGHSGAVMELHYNTDGSMLFSASTDKTVAVWDSETGERVKRLKGHTSFVNSCYPARRGPQLVCTGSDDGTVKLWDIRKKAAIQTFQNTYQVLAVTFNDTSDQIISGGIDNDIKVWDLRQNKLTYTMRGHADSVTGLSLSSEGSYLLSNAMDNTVRVWDVRPFAPKERCVKIFQGNVHNFEKNLLRCSWSPDGSKIAAGSADRFVYVWDTTSRRILYKLPGHAGSINEVAFHPDEPIIISASSDKRLYMGEIQ

binding [3]: binds | binding [4]: binds
B2: RBM14 (protein, UniProt Q96PK6 1-669)
chain: MKIFVGNVDGADTTPEELAALFAPYGTVMSCAVMKQFAFVHMRENAGALRAIEALHGHELRPGRALVVEMSRPRPLNTWKIFVGNVSAACTSQELRSLFERRGRVIECDVVKDYAFVHMEKEADAKAAIAQLNGKEVKGKRINVELSTKGQKKGPGLAVQSGDKTKKPGAGDTAFPGTGGFSATFDYQQAFGNSTGGFDGQARQPTPPFFGRDRSPLRRSPPRASYVAPLTAQPATYRAQPSVSLGAAYRAQPSASLGVGYRTQPMTAQAASYRAQPSVSLGAPYRGQLASPSSQSAAASSLGPYGGAQPSASALSSYGGQAAAASSLNSYGAQGSSLASYGNQPSSYGAQAASSYGVRAAASSYNTQGAASSLGSYGAQAASYGAQSAASSLAYGAQAASYNAQPSASYNAQSAPYAAQQAASYSSQPAAYVAQPATAAAYASQPAAYAAQATTPMAGSYGAQPVVQTQLNSYGAQASMGLSGSYGAQSAAAATGSYGAAAAYGAQPSATLAAPYRTQSSASLAASYAAQQHPQAAASYRGQPGNAYDGAGQPSAAYLSMSQGAVANANSTPPPYERTRLSPPRASYDDPYKKAVAMSKRYGSDRRLAELSDYRRLSESQLSFRRSPTKSSLDYRRLPDAHSDYARYSGSYNDYLRAAQMHSGYQRRM

binding [1]: binds
B3: XAB2 (protein, UniProt Q9HCS7 1-855)
chain: MVVMARLSRPERPDLVFEEEDLPYEEEIMRNQFSVKCWLRYIEFKQGAPKPRLNQLYERALKLLPCSYKLWYRYLKARRAQVKHRCVTDPAYEDVNNCHERAFVFMHKMPRLWLDYCQFLMDQGRVTHTRRTFDRALRALPITQHSRIWPLYLRFLRSHPLPETAVRGYRRFLKLSPESAEEYIEYLKSSDRLDEAAQRLATVVNDERFVSKAGKSNYQLWHELCDLISQNPDKVQSLNVDAIIRGGLTRFTDQLGKLWCSLADYYIRSGHFEKARDVYEEAIRTVMTVRDFTQVFDSYAQFEESMIAAKMETASELGREEEDDVDLELRLARFEQLISRRPLLLNSVLLRQNPHHVHEWHKRVALHQGRPREIINTYTEAVQTVDPFKATGKPHTLWVAFAKFYEDNGQLDDARVILEKATKVNFKQVDDLASVWCQCGELELRHENYDEALRLLRKATALPARRAEYFDGSEPVQNRVYKSLKVWSMLADLEESLGTFQSTKAVYDRILDLRIATPQIVINYAMFLEEHKYFEESFKAYERGISLFKWPNVSDIWSTYLTKFIARYGGRKLERARDLFEQALDGCPPKYAKTLYLLYAQLEEEWGLARHAMAVYERATRAVEPAQQYDMFNIYIKRAAEIYGVTHTRGIYQKAIEVLSDEHAREMCLRFADMECKLGEIDRARAIYSFCSQICDPRTTGAFWQTWKDFEVRHGNEDTIKEMLRIRRSVQATYNTQVNFMASQMLKVSGSATGTVSDLAPGQSGMDDMKLLEQRAEQLAAEAERDQPLRAQSKILFVRSDASREELAELAQQVNPEEIQLGEDEDEDEMDLEPNEVRLEQQSVPAAVFGSLKED
